Results from patent US8835136B2, “Engineered amine dehydrogenases and methods of use thereof” (Georgia Tech Research Corporation, priority 2012, dated 2014).

Assay: Enantioselectivity of MIBK amination, chiral gas chromatography
Format: biochemical

B1: K67S/E113V/N261L/V290C: LeuDH-AmDH quadruple variant, SEQ ID NO:10, library 11 (protein)
chain: ELFQYMEKYDYEQVLFCQDKESGLKAIIVIHDTTLGPALGGTRMWMYNSEEEALEDALRLARGSTYMNAAAGLNLGGGKTVIIGDPRKDKNEAMFRAFGRFIQGLNGRYITAVDVGTTVADMDIIYQETDYVTGISPEFGSSGNPSPATAYGVYRGMKAAAKEAFGSDSLEGKVVAVQGVGNVAYHLCRHLHEEGAKLIVTDINKEAVARAVEEFGAKAVDPNDIYGVECDIFAPCALGGIINDQTIPQLKAKVIAGSADLQLKEPRHGDMIHEMGIVYAPDYVINAGGCINVADELYGYNRERAMKKIEQIYDNIEKVFAIAKRDNIPTYVAADRMAEERIETMRKARSQFLQNGHHILSRRRAR
With B1 the “e.e. of (R)-1,3-DMBA” value (175 mL-scale reaction) was > 99.3% and the e.e. ((R)-1,3-DMBA, TFAA derivatization, chiral GC) was 99.8%.
